Measured values published in article PMC10879132.
Results are given in words; binding and its absence hold for the method and conditions named. Binding seen in cells or lysates may run through a third protein. Some entries that bind do so weakly or less than the wild type.

Amino acid sequences for entries named in this document (tags omitted).
UniProt Q6KC79: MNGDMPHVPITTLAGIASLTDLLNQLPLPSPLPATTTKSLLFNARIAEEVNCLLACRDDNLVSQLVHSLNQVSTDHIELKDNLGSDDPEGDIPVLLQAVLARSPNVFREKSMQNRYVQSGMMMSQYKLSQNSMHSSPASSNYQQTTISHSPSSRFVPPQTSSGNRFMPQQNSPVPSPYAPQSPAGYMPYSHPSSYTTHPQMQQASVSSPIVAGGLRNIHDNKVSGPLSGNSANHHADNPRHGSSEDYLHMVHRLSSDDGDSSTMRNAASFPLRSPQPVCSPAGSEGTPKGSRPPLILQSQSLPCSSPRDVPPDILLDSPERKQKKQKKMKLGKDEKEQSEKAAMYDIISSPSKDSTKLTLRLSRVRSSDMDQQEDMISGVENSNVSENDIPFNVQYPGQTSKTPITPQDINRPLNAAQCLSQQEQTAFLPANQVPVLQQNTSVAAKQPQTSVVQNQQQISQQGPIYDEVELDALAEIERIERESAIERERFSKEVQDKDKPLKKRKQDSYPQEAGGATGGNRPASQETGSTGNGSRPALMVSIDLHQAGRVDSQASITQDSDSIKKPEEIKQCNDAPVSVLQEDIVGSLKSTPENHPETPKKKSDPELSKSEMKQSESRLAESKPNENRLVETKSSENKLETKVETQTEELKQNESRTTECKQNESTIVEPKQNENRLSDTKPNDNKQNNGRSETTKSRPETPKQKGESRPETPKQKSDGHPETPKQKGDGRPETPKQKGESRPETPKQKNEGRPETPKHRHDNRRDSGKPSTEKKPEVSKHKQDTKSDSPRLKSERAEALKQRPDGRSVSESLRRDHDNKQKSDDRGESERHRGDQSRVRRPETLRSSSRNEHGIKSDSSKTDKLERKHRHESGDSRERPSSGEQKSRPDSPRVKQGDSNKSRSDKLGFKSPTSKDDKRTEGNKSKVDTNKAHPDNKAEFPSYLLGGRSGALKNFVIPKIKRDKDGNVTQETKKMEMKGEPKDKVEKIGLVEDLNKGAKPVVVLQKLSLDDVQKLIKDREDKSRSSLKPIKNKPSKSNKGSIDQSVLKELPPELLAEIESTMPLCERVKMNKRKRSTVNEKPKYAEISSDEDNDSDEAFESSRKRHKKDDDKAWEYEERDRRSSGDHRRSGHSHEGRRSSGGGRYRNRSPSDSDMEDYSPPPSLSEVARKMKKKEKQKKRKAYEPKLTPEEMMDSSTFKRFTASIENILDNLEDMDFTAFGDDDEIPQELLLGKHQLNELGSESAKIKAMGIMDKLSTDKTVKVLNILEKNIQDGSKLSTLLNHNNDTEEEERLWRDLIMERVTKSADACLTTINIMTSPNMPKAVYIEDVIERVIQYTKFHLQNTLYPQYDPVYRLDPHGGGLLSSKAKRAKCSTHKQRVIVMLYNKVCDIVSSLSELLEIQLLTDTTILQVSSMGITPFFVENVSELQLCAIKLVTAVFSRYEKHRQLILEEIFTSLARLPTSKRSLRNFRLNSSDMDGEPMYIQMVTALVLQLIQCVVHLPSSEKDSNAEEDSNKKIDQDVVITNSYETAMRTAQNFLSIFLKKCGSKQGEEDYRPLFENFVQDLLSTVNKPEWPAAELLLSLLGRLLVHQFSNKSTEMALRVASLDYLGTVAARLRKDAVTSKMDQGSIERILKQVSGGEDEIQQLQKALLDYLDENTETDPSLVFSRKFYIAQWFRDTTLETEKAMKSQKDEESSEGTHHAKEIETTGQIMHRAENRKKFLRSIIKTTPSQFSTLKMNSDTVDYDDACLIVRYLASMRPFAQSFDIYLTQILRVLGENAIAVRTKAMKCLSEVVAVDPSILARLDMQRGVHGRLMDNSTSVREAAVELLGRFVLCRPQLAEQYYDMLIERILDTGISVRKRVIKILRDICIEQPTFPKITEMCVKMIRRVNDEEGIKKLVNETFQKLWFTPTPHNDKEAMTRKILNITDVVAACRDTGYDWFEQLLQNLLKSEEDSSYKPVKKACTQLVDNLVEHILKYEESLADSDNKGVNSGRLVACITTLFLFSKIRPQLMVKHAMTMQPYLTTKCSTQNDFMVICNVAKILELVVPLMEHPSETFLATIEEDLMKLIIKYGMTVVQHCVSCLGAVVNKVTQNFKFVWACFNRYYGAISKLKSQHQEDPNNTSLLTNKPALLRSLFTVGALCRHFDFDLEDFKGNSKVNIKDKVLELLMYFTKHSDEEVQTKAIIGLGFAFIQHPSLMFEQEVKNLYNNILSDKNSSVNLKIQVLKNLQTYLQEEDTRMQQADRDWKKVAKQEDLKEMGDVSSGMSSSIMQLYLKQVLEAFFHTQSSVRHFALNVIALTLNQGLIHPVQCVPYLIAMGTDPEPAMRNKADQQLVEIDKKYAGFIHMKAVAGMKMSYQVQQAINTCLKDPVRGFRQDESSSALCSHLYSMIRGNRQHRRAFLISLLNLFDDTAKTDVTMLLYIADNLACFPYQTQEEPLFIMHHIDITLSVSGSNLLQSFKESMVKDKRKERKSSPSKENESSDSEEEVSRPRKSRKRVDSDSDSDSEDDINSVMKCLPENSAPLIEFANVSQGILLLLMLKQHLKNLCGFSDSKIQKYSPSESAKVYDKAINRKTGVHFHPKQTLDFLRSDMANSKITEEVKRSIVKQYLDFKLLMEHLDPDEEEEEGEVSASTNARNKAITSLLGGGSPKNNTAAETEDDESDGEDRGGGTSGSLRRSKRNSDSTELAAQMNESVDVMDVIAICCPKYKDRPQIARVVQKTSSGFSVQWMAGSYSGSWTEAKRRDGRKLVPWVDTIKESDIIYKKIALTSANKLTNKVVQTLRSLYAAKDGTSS
UniProt O15054: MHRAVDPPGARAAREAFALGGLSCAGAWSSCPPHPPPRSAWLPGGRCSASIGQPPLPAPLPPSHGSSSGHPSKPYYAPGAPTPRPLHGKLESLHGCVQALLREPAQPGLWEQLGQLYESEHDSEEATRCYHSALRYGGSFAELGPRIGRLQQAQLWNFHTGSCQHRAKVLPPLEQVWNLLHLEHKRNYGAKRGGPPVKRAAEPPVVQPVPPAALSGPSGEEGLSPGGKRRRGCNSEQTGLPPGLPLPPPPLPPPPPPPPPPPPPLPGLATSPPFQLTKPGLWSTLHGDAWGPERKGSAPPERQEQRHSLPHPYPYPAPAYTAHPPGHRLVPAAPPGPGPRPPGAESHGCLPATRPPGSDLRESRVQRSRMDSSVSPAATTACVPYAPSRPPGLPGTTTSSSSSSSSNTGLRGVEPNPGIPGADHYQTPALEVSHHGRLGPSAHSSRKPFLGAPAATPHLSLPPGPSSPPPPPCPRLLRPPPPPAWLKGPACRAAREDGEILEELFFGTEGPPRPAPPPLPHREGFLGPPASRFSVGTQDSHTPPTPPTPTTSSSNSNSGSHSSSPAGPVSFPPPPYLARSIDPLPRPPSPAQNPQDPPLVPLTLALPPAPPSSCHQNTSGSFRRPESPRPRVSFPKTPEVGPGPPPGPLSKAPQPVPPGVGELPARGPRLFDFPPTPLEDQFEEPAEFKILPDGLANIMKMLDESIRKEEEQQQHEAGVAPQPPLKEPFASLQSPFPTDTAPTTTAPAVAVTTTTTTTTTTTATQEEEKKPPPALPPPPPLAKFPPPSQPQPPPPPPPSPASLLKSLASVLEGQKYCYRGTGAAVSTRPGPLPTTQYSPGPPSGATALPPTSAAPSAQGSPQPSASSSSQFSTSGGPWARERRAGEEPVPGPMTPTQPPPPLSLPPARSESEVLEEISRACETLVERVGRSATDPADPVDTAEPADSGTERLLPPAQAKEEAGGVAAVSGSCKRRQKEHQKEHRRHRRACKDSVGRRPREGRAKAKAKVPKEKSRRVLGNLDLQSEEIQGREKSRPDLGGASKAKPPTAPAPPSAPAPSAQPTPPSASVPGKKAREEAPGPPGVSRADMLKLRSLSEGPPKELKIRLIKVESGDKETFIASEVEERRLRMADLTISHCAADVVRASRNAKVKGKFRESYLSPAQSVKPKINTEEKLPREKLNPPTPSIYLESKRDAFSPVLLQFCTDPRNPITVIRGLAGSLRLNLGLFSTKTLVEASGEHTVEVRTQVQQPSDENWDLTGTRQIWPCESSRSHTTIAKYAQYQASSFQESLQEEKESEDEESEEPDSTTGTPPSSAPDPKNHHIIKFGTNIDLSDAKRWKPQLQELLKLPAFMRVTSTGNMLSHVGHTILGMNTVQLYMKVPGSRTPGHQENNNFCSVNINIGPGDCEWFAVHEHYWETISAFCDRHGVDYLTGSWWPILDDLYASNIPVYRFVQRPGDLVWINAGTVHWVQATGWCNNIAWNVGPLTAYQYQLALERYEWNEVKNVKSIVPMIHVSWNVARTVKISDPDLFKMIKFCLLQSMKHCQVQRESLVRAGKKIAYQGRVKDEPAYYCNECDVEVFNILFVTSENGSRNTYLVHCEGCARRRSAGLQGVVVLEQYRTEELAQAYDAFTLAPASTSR

Assays:
[1] = biological target: T1, RAD21 cohesin complex component (RAD21) (human (endogenous in H1299 and H1650)) (UniProt O60216); assay: co-IP; competitive co-IP: H1299 or H1650 cells transfected with 0.5, 1 or 2 ug NIPBL expression vector, then co-IP with anti-RAD21 antibody; interaction of RAD21 with NIPBL or EZH2 evaluated
T1 sequence: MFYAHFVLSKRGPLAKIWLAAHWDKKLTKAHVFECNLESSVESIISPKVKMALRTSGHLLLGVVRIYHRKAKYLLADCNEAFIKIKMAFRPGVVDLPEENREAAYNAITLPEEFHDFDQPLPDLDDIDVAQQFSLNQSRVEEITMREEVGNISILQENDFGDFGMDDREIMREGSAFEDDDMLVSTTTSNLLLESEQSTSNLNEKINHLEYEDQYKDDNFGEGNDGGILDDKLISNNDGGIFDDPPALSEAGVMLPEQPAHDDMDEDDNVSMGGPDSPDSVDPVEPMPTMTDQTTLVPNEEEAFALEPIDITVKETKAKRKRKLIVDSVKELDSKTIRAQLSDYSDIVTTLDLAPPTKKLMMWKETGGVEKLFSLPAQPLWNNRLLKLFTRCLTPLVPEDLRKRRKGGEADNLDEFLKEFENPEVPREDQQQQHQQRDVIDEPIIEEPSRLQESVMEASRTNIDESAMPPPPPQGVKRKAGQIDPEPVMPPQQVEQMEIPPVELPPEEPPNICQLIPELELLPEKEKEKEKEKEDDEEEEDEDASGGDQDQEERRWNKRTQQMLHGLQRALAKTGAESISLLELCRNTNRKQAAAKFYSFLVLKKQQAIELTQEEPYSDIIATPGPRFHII

[2] = biological target: Nipped-B-Like Protein (NIPBL) (human (endogenous in H1299 and H1650)) (UniProt Q6KC79); assay: co-IP; lysate of H1299 and H1650 cells in nondenaturing lysis buffer, about 300 ug protein, 1 ug anti-NIPBL antibody and protein A/G magnetic beads overnight at 4 °C; Western blot for KDM6B; rabbit IgG as negative control

Substance | binding [1] | binding [2]
NIPBL from the NIPBL expression vector (from UniProt Q6KC79 1-2804) | binds | –
lysine demethylase 6B (KDM6B) (from UniProt O15054 1-1643) | – | binds
